Results as given in patent US5260257A, “Thermal transfer sheet” (Dai Nippon Printing Co., Ltd., priority 1991, dated 1993).

Legend:
[1] = surface appearance of sheet (naked eye); conditions: Table D1
[2] = reflection density of print (densitometer TR-310, X-Rite); conditions: Table D1; 10.5 V, maximum pulse width 16 msec
[3] = recording density (densitometer RD-918, Macbeth); conditions: 10 V, 4.0 msec
[4] = dye migration resistance of recorded image (70° C., 48 hr, sharpness and coloration of white paper); parameters: key: .circleincircle.: no change in the sharpness was observed and rubbing of the surface with white paper gave rise to no coloration of the white paper; .largecircle.: the sharpness of the image was slightly lost and the white paper was slightly colored; Δ: the sharpness of the image was lost and the white paper was colored; X: the image became unclear and the white paper was remarkably colored

CCN(CC)c1ccc(N=C2C=C(NC(C)=O)C(=O)C(Cl)=C2C)c(C)c1 [Comp. Ex. D1]
surface appearance of sheet [1]: rough surface | Recording density [2]: 1.85

CCN(CC)c1ccc(N=C2C=C(NC(=O)C3CCCCC3)C(=O)C(Cl)=C2C)c(C)c1 [Comp. Ex. D2]
surface appearance of sheet [1]: rough surface | Recording density [2]: 2.07

CCN(CC)c1ccc(N=C2C=C(NC(=O)C3=CCC=CC3)C(=O)C=C2NC(C)=O)c(C)c1 [Dye No. 20 in Table B1]
Recording density ([3]; Table B2, dyes of Table B1): 1.82 | Dye migration resistance ([4]; Table B2, dyes of Table B1): .largecircle.

CCN(CC)c1ccc(N=C2C=C(NC(=O)C3CC4C=C(C)C3C4)C(=O)C=C2NC(C)=O)c(C)c1 (stereo not drawn) [Dye No. 20 in Table C1]
Recording density ([3]; Table C2, dyes of Table C1): 1.78 | Dye migration resistance ([4]; Table C2, dyes of Table C1): .largecircle.

CCN(CCO)c1ccc(N=C2C=C(NC(=O)C3=CCC=CC3)C(=O)C(Cl)=C2C)c(C)c1 [Dye No. 21 in Table B1]
Recording density ([3]; Table B2, dyes of Table B1): 1.83 | Dye migration resistance ([4]; Table B2, dyes of Table B1): .largecircle.

CCN(CC)c1ccc(N=C2C=C(NC(=O)C3CC4C=CC3O4)C(=O)C(Cl)=C2C)c(C)c1 (stereo not drawn) [Dye No. 21 in Table C1]
Recording density ([3]; Table C2, dyes of Table C1): 1.79 | Dye migration resistance ([4]; Table C2, dyes of Table C1): .largecircle.

CCOc1cc(N(CC)CC)ccc1N=C1C=C(NC(=O)C2CC=CCC2)C(=O)C(Cl)=C1C (stereo not drawn) [Dye No. 22 in Table B1]
Recording density ([3]; Table B2, dyes of Table B1): 1.66 | Dye migration resistance ([4]; Table B2, dyes of Table B1): .largecircle.

CCN(CC)c1ccc(N=C2C=C(NC(=O)C3CC4C=CC3S4)C(=O)C(Cl)=C2C)c(C)c1 (stereo not drawn) [Dye No. 22 in Table C1]
Recording density ([3]; Table C2, dyes of Table C1): 1.71 | Dye migration resistance ([4]; Table C2, dyes of Table C1): .largecircle.

CCN(CC)c1ccc(N=C2C=C(NC(=O)C3CC4C=CC3S4)C(=O)C=C2NC(C)=O)c(C)c1 (stereo not drawn) [Dye No. 23 in Table C1]
Recording density ([3]; Table C2, dyes of Table C1): 1.70 | Dye migration resistance ([4]; Table C2, dyes of Table C1): .largecircle.

CCN(CC)c1ccc(N=C2C=C(NC(=O)C3CC4C=CC3N4C)C(=O)C(Cl)=C2C)c(C)c1 (stereo not drawn) [Dye No. 24 in Table C1]
Recording density ([3]; Table C2, dyes of Table C1): 1.73 | Dye migration resistance ([4]; Table C2, dyes of Table C1): .largecircle.

CCN(CC)c1ccc(N=C2C=C(NC(=O)C3CC3)C(=O)C(Cl)=C2C)c(C)c1 [compound 1]
Recording density ([3]; Table A2, dyes of Table A1): 1.95 | Dye migration resistance ([4]; Table A2, dyes of Table A1): Δ

CCN(CCO)c1ccc(N=C2C=C(NC(=O)C3CC3)C(=O)C(Cl)=C2C)c(C)c1 [compound 2]
Recording density ([3]; Table A2, dyes of Table A1): 1.91 | Dye migration resistance ([4]; Table A2, dyes of Table A1): .largecircle.

CCN(CC)c1ccc(N=C2C=C(NC(=O)C3CC3)C(=O)C=C2NC(C)=O)c(C)c1 [compound 3]
Recording density ([3]; Table A2, dyes of Table A1): 1.92 | Dye migration resistance ([4]; Table A2, dyes of Table A1): .largecircle.

CCOc1cc(N(CC)CC)ccc1N=C1C=CC(=O)C(NC(=O)C2CC2)=C1 [compound 4]
Recording density ([3]; Table A2, dyes of Table A1): 1.97 | Dye migration resistance ([4]; Table A2, dyes of Table A1): Δ

CCOc1cc(N(CC)Cc2ccccc2)ccc1N=C1C=C(NC(=O)C2CC2)C(=O)C=C1NC(C)=O [compound 5]
Recording density ([3]; Table A2, dyes of Table A1): 1.81 | Dye migration resistance ([4]; Table A2, dyes of Table A1): .largecircle.

CCN(CCNS(C)(=O)=O)c1ccc(N=C2C=C(NC(=O)C3CC3)C(=O)C=C2NC(C)=O)c(C)c1 [compound 6]
Recording density ([3]; Table A2, dyes of Table A1): 1.82 | Dye migration resistance ([4]; Table A2, dyes of Table A1): .largecircle.

CCN(CCC#N)c1ccc(N=C2C=C(NC(=O)C3CC3)C(=O)C=C2NS(C)(=O)=O)c(NC(C)=O)c1 [compound 7]
Recording density ([3]; Table A2, dyes of Table A1): 1.79 | Dye migration resistance ([4]; Table A2, dyes of Table A1): .largecircle.

CCN(c1ccccc1)c1ccc(N=C2C=C(NC(=O)C3CC3)C(=O)C(Cl)=C2C)c(Cl)c1 [compound 8]
Recording density ([3]; Table A2, dyes of Table A1): 1.85 | Dye migration resistance ([4]; Table A2, dyes of Table A1): .largecircle.

CCN(CC)c1ccc(N=C2C=CC(=O)C(NC(=O)C3CC3)=C2)c(NC(C)=O)c1 [compound 9]
Recording density ([3]; Table A2, dyes of Table A1): 1.93 | Dye migration resistance ([4]; Table A2, dyes of Table A1): Δ

CCN(CCO)c1ccc(N=C2C=C(NC(=O)C3CC3)C(=O)C=C2NC(C)=O)c(NS(C)(=O)=O)c1 [compound 10]
Recording density ([3]; Table A2, dyes of Table A1): 1.88 | Dye migration resistance ([4]; Table A2, dyes of Table A1): .largecircle.

CCN(CC)c1ccc(N=C2C=C(NC(=O)C3CC3)C(=O)C(Cl)=C2C)cc1 [compound 11]
Recording density ([3]; Table A2, dyes of Table A1): 1.98 | Dye migration resistance ([4]; Table A2, dyes of Table A1): .largecircle.

CCCCC1CC(C(=O)NC2=CC(=Nc3ccc(N(CC)CC)cc3C)C(C)=C(Cl)C2=O)C1 (stereo not drawn) [compound 12]
Recording density ([3]; Table A2, dyes of Table A1): 1.83 | Dye migration resistance ([4]; Table A2, dyes of Table A1): .largecircle.

CCN(Cc1ccccc1)c1ccc(N=C2C=C(NC(=O)C3CCCC3)C(=O)C=C2NC(C)=O)c(C)c1 [compound 13]
Recording density ([3]; Table A2, dyes of Table A1): 1.86 | Dye migration resistance ([4]; Table A2, dyes of Table A1): .largecircle.

CCN(CC)c1ccc(N=C2C=C(NC(=O)C3CCCC3)C(=O)C(Cl)=C2C)c(NC(C)=O)c1 [compound 14]
Recording density ([3]; Table A2, dyes of Table A1): 1.85 | Dye migration resistance ([4]; Table A2, dyes of Table A1): .largecircle.

CCN(CC)c1ccc(N=C2C=C(NC(=O)C3CCCC3)C(=O)C(Cl)=C2C)c(C)c1 [compound 15]
Recording density ([3]; Table A2, dyes of Table A1): 1.82 | Dye migration resistance ([4]; Table A2, dyes of Table A1): .largecircle.

CCN(CC)c1ccc(N=C2C=C(NC(=O)C3CCCC3)C(=O)C(Cl)=C2C)cc1 [compound 17]
Recording density ([3]; Table A2, dyes of Table A1): 1.90 | Dye migration resistance ([4]; Table A2, dyes of Table A1): .largecircle.

CCN(CCCl)c1ccc(N=C2C=C(NC(=O)C3CCCC3)C(=O)C=C2NC(C)=O)c(NC(=O)NC)c1 [compound 18]
Recording density ([3]; Table A2, dyes of Table A1): 1.70 | Dye migration resistance ([4]; Table A2, dyes of Table A1): .largecircle.

CCN(CC)c1ccc(N=C2C=C(NC(=O)c3ccsc3)C(=O)C(Cl)=C2C)c(C)c1 [compound 19]
Recording density ([3]; Table A2, dyes of Table A1): 1.83 | Dye migration resistance ([4]; Table A2, dyes of Table A1): .largecircle.

CCN(CC)c1ccc(N=C2C=C(NC(=O)c3ccsc3)C(=O)C(Cl)=C2C)c(NC(C)=O)c1 [compound 20]
Recording density ([3]; Table A2, dyes of Table A1): 1.72 | Dye migration resistance ([4]; Table A2, dyes of Table A1): .largecircle.

CCN(CC)c1ccc(N=C2C=C(NC(=O)c3ccsc3)C(=O)C=C2NC(C)=O)c(C)c1 [compound 21]
Recording density ([3]; Table A2, dyes of Table A1): 1.76 | Dye migration resistance ([4]; Table A2, dyes of Table A1): .largecircle.

CCN(CCOC)c1ccc(N=C2C=C(NC(=O)c3ccsc3)C(=O)C(Cl)=C2C)c(NC(C)=O)c1 [compound 22]
Recording density ([3]; Table A2, dyes of Table A1): 1.71 | Dye migration resistance ([4]; Table A2, dyes of Table A1): .largecircle.

CCN(CC)c1ccc(N=C2C=CC(=O)C(NC(=O)C3CC=CCC3)=C2)c(C)c1 (stereo not drawn) [compound 23]
Recording density ([3]; Table B2, dyes of Table B1): 1.92 | Dye migration resistance ([4]; Table B2, dyes of Table B1): Δ

CCN(CCNS(C)(=O)=O)c1ccc(N=C2C=C(NC(=O)C3CC=CCC3)C(=O)C(Cl)=C2C)c(C)c1 (stereo not drawn) [compound 24]
Recording density ([3]; Table B2, dyes of Table B1): 1.60 | Dye migration resistance ([4]; Table B2, dyes of Table B1): .largecircle.
